Measured values as given in patent US9382295B2 (Cypralis Limited, priority 2012, dated 2016).

Experiment: peptide synthesis
Settings: late stage modification step

Row | Substance | step yield [%]
1 | Cyclo-(MeBmt-(O-methyl-Thr)-Sar-MeLeu-Leu-MeLeu-Ala-D-Hiv-MeLeu-Leu-MeVal) | 87
2 | cyclo-[(3R,4R,5S)-4-(hydroxy)-3-methyl-5-(methylamino)-1-N-morpholino-hexanoic acid-(O-methyl-Thr)-Sar-MeLeu-Leu-MeLeu-Ala-D-Hiv-MeLeu-Leu-MeVal] | 43
